From PMC6531468 come the findings set out here.

By UniProt entry, the sequences of proteins in these tests, tags left out. Residues count along the entry.
UniProt O00425, 192-355 K213D/E214D: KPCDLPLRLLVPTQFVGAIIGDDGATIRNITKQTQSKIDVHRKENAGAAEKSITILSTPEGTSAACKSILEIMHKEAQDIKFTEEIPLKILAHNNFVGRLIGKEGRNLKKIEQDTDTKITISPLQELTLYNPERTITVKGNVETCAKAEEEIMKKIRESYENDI
UniProt O00425, 2-156: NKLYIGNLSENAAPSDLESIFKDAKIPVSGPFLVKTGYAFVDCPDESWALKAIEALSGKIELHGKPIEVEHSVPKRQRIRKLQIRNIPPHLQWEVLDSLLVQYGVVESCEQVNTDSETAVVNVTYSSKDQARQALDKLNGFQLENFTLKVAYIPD
UniProt O00425, whole entry K213D/E214D/K294D/E295D/K423D/Q424D/K505D/G506D: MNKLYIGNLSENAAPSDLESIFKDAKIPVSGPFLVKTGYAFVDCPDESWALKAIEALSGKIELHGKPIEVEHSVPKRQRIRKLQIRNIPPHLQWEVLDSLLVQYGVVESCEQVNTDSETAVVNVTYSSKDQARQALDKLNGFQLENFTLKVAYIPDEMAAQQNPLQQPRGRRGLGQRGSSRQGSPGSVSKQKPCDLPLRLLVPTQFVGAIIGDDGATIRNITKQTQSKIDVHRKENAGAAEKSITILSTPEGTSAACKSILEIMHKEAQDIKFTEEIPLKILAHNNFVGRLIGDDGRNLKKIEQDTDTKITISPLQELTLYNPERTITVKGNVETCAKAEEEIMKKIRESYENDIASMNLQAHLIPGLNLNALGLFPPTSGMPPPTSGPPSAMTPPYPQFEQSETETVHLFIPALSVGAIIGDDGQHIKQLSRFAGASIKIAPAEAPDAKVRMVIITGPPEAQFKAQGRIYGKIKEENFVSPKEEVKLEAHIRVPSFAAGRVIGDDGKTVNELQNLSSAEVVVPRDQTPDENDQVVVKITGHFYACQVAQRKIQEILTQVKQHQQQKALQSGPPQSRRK
UniProt O00425, whole entry K423D/Q424D/K505D/G506D: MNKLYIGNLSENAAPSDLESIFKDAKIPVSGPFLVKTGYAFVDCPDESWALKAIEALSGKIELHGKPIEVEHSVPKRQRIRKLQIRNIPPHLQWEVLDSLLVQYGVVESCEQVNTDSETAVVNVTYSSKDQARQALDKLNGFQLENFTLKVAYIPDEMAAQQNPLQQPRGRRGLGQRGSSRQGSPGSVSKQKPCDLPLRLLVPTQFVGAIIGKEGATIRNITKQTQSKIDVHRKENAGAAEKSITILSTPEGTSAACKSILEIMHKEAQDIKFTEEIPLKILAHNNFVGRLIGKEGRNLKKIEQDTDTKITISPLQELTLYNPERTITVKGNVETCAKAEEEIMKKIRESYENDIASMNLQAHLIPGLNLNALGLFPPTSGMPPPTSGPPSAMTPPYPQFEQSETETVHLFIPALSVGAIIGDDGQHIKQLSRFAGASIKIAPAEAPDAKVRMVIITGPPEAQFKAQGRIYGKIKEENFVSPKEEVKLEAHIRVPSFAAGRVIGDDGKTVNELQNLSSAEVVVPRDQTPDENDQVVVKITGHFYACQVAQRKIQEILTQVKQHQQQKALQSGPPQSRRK
UniProt O00425, 164-376: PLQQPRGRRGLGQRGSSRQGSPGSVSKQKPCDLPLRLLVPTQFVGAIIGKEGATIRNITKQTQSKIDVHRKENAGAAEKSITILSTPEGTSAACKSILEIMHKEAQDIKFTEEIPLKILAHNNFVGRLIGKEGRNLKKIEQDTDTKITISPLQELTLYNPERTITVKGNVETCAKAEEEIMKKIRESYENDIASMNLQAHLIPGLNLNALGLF
UniProt O00425, 164-579: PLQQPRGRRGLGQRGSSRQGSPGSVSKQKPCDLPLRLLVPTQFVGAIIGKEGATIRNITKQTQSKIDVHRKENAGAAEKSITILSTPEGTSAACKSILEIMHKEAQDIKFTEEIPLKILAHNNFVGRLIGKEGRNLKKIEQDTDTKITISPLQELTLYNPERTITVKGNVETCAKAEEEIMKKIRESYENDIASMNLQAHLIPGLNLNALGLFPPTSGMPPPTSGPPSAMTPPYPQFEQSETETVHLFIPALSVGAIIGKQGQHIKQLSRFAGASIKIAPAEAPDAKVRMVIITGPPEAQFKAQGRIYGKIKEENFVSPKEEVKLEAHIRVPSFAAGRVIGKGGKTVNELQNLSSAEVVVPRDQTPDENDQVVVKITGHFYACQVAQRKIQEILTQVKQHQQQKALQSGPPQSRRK
UniProt O00425, 377-579: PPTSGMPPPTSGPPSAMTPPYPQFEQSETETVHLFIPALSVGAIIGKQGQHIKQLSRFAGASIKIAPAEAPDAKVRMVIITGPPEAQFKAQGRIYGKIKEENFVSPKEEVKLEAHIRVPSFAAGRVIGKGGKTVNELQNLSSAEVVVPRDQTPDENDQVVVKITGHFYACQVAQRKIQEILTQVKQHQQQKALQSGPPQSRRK
UniProt O00425, 1-163: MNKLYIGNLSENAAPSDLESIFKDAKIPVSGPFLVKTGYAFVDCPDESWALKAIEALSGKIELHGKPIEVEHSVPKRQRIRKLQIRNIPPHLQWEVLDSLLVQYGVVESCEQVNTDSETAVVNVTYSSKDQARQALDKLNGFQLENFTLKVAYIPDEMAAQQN
UniProt O00425, whole entry: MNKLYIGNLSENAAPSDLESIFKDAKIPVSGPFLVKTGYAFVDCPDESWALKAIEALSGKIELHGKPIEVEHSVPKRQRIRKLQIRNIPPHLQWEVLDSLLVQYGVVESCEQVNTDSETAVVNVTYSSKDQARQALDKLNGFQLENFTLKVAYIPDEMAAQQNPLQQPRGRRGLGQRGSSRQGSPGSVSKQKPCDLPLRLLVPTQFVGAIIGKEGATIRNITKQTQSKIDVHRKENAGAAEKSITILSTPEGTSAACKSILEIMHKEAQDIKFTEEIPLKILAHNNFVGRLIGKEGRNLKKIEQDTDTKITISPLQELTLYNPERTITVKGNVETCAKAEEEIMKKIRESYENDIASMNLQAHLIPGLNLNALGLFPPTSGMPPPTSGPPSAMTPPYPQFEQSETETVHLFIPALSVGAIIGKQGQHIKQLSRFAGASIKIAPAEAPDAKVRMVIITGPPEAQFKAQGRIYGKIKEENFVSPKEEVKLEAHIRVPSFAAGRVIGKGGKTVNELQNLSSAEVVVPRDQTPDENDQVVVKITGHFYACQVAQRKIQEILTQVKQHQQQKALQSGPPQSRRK

pKd: −log10 of the molar value. For part of these data: Negatives hold for the conditions tested. For part of these data: At least one verdict was read from the data and is not stated in words by the source. For part of these data: Weaker means in comparison with the reference protein, sequence or condition of that experiment. For part of these data: Construct, isoform or probe ends are uncertain for at least one entry. For part of these data: Results from cells or extracts need not show a direct contact. For part of these data: The direction of at least one scale is not stated here.

The first series concerns the target IMP3 KHd1-2 K213D,E214D (Homo sapiens) (UniProt O00425). Briefly: NMR. As to conditions: no considerable cross-reactivity; recombinant protein; protein details: Trx-His6 removed by TEV, leaves GAMA.
For UCGGCAC [GGC (CGG) 7-mer], the binding result is “no binding”.

In another series the target is IMP3 RRM1-2 (Homo sapiens) (UniProt O00425). Description: NMR. As to conditions: recombinant protein; residues 2-156.
On to GUGUGUGUGU [(GU)5], for which the binding result is recorded as “binds more weakly”.

In a further series the target is IMP3 dKH1-4 K213D,E214D,K294D,E295D,K423D,Q424D,K505D,G506D (Homo sapiens) (UniProt O00425). Description: EMSA. As to conditions: Hill n 1.0, value assigned from figure text order; EMSA: 10 mM Tris-HCl pH 7.5, 150 mM NaCl, 0.5 mM EDTA, 0.5 mM DTT, 0.1% NP-40, 5% glycerol, tRNA+BSA, 5 nM RNA, 30 min RT then ice; recombinant protein; protein details: GST; label: 32P-UTP.
Take “GGGAGGGAGGAAGGCAAUUUUGGAGGAACUACAGAACACAUAUCGCAGCUAAAACACAAUUUUGGAGGAACUACAGAAUGCGGCUAUCCACACACAAAGGG [101-mer]”: the pKd was 6.93.

The target of another series is IMP3 dKH3-4 K423D,Q424D,K505D,G506D (Homo sapiens) (UniProt O00425). Description: EMSA. As to conditions: Hill n 1.8, value assigned from figure text order; EMSA: 10 mM Tris-HCl pH 7.5, 150 mM NaCl, 0.5 mM EDTA, 0.5 mM DTT, 0.1% NP-40, 5% glycerol, tRNA+BSA, 5 nM RNA, 30 min RT then ice; recombinant protein; protein details: GST; label: 32P-UTP.
For “GGGAGGGAGGAAGGCAAUUUUGGAGGAACUACAGAACACAUAUCGCAGCUAAAACACAAUUUUGGAGGAACUACAGAAUGCGGCUAUCCACACACAAAGGG [101-mer]”, the pKd is 7.48.

Another series has as its target IMP3 KH1-2 (Homo sapiens) (UniProt O00425). Briefly: SELEX. Particulars: round 4; purified recombinant protein; residues 164-376; protein details: GST, His6, kept; only the motif is given.
Consider ACCUAA [6-mer ACCTAA], for which the binding signal (SELEX z-score, GST-corrected) was -1.97.

The series is the same for the next values; noted with them: round 4; purified recombinant protein; residues 164-376; protein details: GST, His6, kept; only the motif is given; counted as no binding.
Consider ACUCGC [6-mer ACTCGC], for which the binding signal (SELEX z-score, GST-corrected) was -0.633.

With ACUGAG [6-mer ACTGAG], the binding signal (SELEX z-score, GST-corrected) was -1.19. The same measure, in the same setting: then ACUGCG [6-mer ACTGCG], with -0.544; and CCCACC [6-mer CCCACC], with -1.37; and CCGAAU [6-mer CCGAAT], with -0.69. The same measure, in the same setting: then CCGAUC [6-mer CCGATC], with -1.05. As for CUACCU [6-mer CTACCT], the binding signal (SELEX z-score, GST-corrected) is -0.824. On to CUCCAA [6-mer CTCCAA], for which the binding signal (SELEX z-score, GST-corrected) is -0.751.

Take GAACCC [6-mer GAACCC]: the binding signal (SELEX z-score, GST-corrected) is -1.64. Still for that read-out and setting: then GACUCC [6-mer GACTCC], with -0.591.

On to UAAAAA [6-mer TAAAAA], for which the binding signal (SELEX z-score, GST-corrected) is -0.501. With UGAACC [6-mer TGAACC], the binding signal (SELEX z-score, GST-corrected) is -0.889. UGAGCG [6-mer TGAGCG]: the binding signal (SELEX z-score, GST-corrected) was -5.22.

For the sequence UUGACG [6-mer TTGACG], the binding signal (SELEX z-score, GST-corrected) is -0.96.

In the next series the target is IMP3 KH1-4 (Homo sapiens) (UniProt O00425). Briefly: SELEX. Particulars: round 4; purified recombinant protein; residues 164-579; protein details: GST, His6, kept; only the motif is given; counted as no binding.
In the case of AGACCG [6-mer AGACCG], the binding signal (SELEX z-score, GST-corrected) is -1.12. The same measure, in the same setting: the same measure for AGCCAA [6-mer AGCCAA]: -1.46. Turning to AGGAGC [6-mer AGGAGC], the binding signal (SELEX z-score, GST-corrected) was -0.719.

As for AGUAUC [6-mer AGTATC], the binding signal (SELEX z-score, GST-corrected) is -0.555. Same read-out and setting: the same measure for CAAGCG [6-mer CAAGCG]: -2.09. On the same count and under the same terms, then CAGCCC [6-mer CAGCCC], with -0.504; and CAGCGC [6-mer CAGCGC], with -1.26. The same measure, in the same setting: the same measure for CCCUGG [6-mer CCCTGG]: -0.794. Regarding CGACCG [6-mer CGACCG], the binding signal (SELEX z-score, GST-corrected) is -1.73. On the same count and under the same terms, then CGUUUC [6-mer CGTTTC], with -0.606; and CUACGA [6-mer CTACGA], with -0.854; and CUCUUG [6-mer CTCTTG], with -0.659.

UGAGCG [6-mer TGAGCG]: the binding signal (SELEX z-score, GST-corrected) was -5.45. Same read-out and setting: the same measure for UGCCCU [6-mer TGCCCT]: -1.01; for UUGACG [6-mer TTGACG]: -0.923.

The next series deals with IMP3 KH3-4 (Homo sapiens) (UniProt O00425). Briefly: SELEX. As to conditions: round 4; purified recombinant protein; residues 377-579; protein details: GST, His6, kept; only the motif is given.
On to ACCUAA [6-mer ACCTAA], for which the binding signal (SELEX z-score, GST-corrected) is -2.12. With ACUUGC [6-mer ACTTGC], the binding signal (SELEX z-score, GST-corrected) is -0.501.

Still in this series, the particulars now being: round 4; purified recombinant protein; residues 377-579; protein details: GST, His6, kept; only the motif is given; counted as no binding.
As to ACCCGU [6-mer ACCCGT], the binding signal (SELEX z-score, GST-corrected) is -1.33.

Consider CCAACU [6-mer CCAACT], for which the binding signal (SELEX z-score, GST-corrected) is -1.2. CCCAAU [6-mer CCCAAT]: the binding signal (SELEX z-score, GST-corrected) was -1.74. Take CGACUG [6-mer CGACTG]: the binding signal (SELEX z-score, GST-corrected) was -0.985. On the same count and under the same terms, the same measure for CGUCAC [6-mer CGTCAC]: -0.905; for GACCUU [6-mer GACCTT]: -0.679; for GAGAGC [6-mer GAGAGC]: -1.08. Regarding GAGCGG [6-mer GAGCGG], the binding signal (SELEX z-score, GST-corrected) was -0.557.

On to GCCCAU [6-mer GCCCAT], for which the binding signal (SELEX z-score, GST-corrected) was -0.816. The same measure, in the same setting: then GCGAAG [6-mer GCGAAG], with -0.762; and GCGAGC [6-mer GCGAGC], with -1.49. Regarding UGAGCG [6-mer TGAGCG], the binding signal (SELEX z-score, GST-corrected) is -4.9. Turning to UGCACC [6-mer TGCACC], the binding signal (SELEX z-score, GST-corrected) was -0.615.

The next series deals with IMP3 RRM1-2 (Homo sapiens) (UniProt O00425). Description: SELEX. Particulars: round 2; purified recombinant protein; residues 1-163; protein details: GST, His6, kept; only the motif is given; counted as no binding.
Take AAAAGG [6-mer AAAAGG]: the binding signal (SELEX z-score, GST-corrected) was -1.68. The same measure, in the same setting: the same measure for AAGAAU [6-mer AAGAAT]: -1.36; for AAGCCA [6-mer AAGCCA]: -0.6; for AAGGAU [6-mer AAGGAT]: -0.57.

Turning to ACCCCU [6-mer ACCCCT], the binding signal (SELEX z-score, GST-corrected) is -0.501. Still for that read-out and setting: then AUAAGA [6-mer ATAAGA], with -0.916. The same measure, in the same setting: the same measure for AUACCG [6-mer ATACCG]: -0.639.

Regarding AUGACG [6-mer ATGACG], the binding signal (SELEX z-score, GST-corrected) is -0.691.

On to AUUAAA [6-mer ATTAAA], for which the binding signal (SELEX z-score, GST-corrected) was -0.759. The same measure, in the same setting: then AUUGAC [6-mer ATTGAC], with -0.535; and GAAAAA [6-mer GAAAAA], with -3.53; and GAUAAC [6-mer GATAAC], with -1. Same read-out and setting: then GGAACC [6-mer GGAACC], with -0.833; and GGAGAA [6-mer GGAGAA], with -1.08; and GGGAAA [6-mer GGGAAA], with -1.19.

For a further series, the target named is IMP3 full length (Homo sapiens) (UniProt O00425). Briefly: SELEX. Particulars: round 4; purified recombinant protein; residues 1-579; protein details: GST, His6, kept; only the motif is given.
As to ACCCAG [6-mer ACCCAG], the binding signal (SELEX z-score, GST-corrected) is -1.5.

The same series, now with this note: round 4; purified recombinant protein; residues 1-579; protein details: GST, His6, kept; only the motif is given; counted as no binding.
For AAAAAC [6-mer AAAAAC], the binding signal (SELEX z-score, GST-corrected) was -4.1. Regarding AACGGA [6-mer AACGGA], the binding signal (SELEX z-score, GST-corrected) was -0.78. On the same count and under the same terms, then AACGGG [6-mer AACGGG], with -0.503; and AAGACG [6-mer AAGACG], with -0.913. Same read-out and setting: then ACCCCG [6-mer ACCCCG], with -0.843; and ACCUGC [6-mer ACCTGC], with -1.28; and ACGCCU [6-mer ACGCCT], with -0.624.

Regarding CCCAGG [6-mer CCCAGG], the binding signal (SELEX z-score, GST-corrected) is -0.718. On the same count and under the same terms, the same measure for CGACUU [6-mer CGACTT]: -0.545; for CGUAGC [6-mer CGTAGC]: -0.989; for CUCCCC [6-mer CTCCCC]: -0.661. On the same count and under the same terms, the same measure for CUGAGC [6-mer CTGAGC]: -1.87.

For UAGAGC [6-mer TAGAGC], the binding signal (SELEX z-score, GST-corrected) is -1.08. In the case of UUAAAG [6-mer TTAAAG], the binding signal (SELEX z-score, GST-corrected) is -0.585.

The target is the same in the next series. Briefly: pull-down. Particulars: 3'-biotin; recombinant protein; residues 1-579; label: biotin.
As to “GGGAGGGAGGAAGGCAAUUUUGGAGGAACUACAGAACACAUAUCGCAGCUAAAACACAAUUUUGGAGGAACUACAGAAUGCGGCUAUCCACACACAAAGGG [101-mer, 3'-biotin]”, the binding result is given as “binds”.

The target of another series is endogenous IMP3 (HeLa lysate) (Homo sapiens) (UniProt O00425). Description: pull-down. As to conditions: HeLa lysate; 3'-biotin; protein in an extract; label: biotin.
Turning to “GGGAGGGAGGAAGGCAAUUUUGGAGGAACUACAGAACACAUAUCGCAGCUAAAACACAAUUUUGGAGGAACUACAGAAUGCGGCUAUCCACACACAAAGGG [101-mer, 3'-biotin]”, the binding result is recorded as “binds”.
